# Data from article PMC2567031.
# Chains of the proteins cited; added tags and fusions are not shown. Residues count along the entry.
# UniProt P56480, residues 47-529: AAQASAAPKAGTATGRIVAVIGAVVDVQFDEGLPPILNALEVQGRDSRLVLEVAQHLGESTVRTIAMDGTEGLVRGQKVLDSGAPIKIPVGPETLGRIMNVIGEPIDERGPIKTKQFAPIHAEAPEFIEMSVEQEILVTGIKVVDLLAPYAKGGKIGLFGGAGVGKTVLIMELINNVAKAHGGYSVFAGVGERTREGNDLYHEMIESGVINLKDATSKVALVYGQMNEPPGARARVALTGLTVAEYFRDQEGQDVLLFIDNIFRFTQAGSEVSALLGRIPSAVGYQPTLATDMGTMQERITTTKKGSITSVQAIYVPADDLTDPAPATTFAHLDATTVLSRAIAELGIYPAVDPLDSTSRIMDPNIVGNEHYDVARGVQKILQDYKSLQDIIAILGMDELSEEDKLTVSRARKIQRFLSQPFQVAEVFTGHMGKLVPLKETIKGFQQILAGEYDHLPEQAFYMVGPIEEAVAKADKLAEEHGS
# UniProt Q9R0P9: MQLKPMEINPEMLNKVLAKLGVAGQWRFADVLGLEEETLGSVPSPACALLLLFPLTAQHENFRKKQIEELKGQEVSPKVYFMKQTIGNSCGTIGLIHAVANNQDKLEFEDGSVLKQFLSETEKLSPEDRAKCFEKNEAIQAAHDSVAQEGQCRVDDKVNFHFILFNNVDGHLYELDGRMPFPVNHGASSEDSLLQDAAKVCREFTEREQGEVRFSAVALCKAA
# UniProt P38647, residues 47-679: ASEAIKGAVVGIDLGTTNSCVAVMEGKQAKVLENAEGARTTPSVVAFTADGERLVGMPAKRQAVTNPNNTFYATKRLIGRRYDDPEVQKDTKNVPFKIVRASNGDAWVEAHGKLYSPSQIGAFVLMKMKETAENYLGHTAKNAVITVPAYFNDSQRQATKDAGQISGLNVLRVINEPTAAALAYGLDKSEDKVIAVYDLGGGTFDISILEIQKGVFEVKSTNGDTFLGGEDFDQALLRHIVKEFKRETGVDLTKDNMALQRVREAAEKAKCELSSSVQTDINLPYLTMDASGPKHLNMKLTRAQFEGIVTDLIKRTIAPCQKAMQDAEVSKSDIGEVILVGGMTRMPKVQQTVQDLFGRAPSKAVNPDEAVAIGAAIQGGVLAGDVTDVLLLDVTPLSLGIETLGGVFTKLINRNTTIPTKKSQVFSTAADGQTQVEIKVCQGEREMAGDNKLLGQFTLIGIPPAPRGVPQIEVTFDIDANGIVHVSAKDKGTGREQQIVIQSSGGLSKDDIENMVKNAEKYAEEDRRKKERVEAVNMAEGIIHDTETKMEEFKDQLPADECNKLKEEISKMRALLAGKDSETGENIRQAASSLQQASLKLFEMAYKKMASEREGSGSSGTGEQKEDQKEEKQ
# UniProt Q8BGD9: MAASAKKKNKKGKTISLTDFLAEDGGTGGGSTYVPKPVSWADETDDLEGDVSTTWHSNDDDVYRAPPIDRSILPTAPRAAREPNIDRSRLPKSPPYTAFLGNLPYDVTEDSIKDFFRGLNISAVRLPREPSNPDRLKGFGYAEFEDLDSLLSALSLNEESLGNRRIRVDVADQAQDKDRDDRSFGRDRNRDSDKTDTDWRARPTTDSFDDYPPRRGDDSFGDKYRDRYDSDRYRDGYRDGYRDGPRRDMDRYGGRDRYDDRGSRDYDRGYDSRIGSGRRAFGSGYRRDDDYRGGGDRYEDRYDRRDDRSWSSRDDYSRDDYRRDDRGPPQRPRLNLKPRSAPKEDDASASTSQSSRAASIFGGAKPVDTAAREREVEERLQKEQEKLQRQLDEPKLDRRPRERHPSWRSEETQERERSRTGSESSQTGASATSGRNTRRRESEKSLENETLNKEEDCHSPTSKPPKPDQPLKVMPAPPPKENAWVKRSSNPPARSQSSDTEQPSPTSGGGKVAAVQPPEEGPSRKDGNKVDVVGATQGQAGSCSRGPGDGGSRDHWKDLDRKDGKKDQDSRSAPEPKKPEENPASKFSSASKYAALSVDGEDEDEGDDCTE
# UniProt Q9CYT6: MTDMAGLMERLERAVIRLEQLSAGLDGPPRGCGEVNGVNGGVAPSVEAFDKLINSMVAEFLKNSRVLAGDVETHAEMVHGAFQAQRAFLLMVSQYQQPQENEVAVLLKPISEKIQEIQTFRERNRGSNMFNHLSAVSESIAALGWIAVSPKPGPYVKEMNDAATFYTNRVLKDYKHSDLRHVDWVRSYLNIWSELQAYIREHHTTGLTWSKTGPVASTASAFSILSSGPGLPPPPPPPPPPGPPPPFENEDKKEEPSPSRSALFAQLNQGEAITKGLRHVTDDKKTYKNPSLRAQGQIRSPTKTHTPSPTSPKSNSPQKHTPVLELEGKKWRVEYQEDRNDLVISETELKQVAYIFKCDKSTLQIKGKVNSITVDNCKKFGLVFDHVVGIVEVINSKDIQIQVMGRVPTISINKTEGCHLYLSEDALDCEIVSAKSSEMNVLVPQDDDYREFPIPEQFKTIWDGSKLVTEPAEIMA
# UniProt P17156: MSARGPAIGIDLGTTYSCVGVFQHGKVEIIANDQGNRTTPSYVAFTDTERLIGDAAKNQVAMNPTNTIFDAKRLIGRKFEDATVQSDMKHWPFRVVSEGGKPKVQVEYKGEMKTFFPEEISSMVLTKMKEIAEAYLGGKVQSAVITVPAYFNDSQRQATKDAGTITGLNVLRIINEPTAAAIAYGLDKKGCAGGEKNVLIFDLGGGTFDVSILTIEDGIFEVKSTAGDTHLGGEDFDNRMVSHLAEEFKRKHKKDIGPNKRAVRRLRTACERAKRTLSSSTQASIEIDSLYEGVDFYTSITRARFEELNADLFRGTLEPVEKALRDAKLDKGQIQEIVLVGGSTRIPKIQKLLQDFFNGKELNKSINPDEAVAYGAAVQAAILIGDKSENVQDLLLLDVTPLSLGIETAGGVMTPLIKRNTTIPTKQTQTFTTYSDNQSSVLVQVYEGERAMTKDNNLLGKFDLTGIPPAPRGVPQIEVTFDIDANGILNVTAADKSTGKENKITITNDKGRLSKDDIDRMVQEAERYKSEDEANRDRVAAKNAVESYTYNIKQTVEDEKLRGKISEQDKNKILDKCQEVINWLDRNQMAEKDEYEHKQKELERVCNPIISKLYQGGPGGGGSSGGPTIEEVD
# UniProt P20357: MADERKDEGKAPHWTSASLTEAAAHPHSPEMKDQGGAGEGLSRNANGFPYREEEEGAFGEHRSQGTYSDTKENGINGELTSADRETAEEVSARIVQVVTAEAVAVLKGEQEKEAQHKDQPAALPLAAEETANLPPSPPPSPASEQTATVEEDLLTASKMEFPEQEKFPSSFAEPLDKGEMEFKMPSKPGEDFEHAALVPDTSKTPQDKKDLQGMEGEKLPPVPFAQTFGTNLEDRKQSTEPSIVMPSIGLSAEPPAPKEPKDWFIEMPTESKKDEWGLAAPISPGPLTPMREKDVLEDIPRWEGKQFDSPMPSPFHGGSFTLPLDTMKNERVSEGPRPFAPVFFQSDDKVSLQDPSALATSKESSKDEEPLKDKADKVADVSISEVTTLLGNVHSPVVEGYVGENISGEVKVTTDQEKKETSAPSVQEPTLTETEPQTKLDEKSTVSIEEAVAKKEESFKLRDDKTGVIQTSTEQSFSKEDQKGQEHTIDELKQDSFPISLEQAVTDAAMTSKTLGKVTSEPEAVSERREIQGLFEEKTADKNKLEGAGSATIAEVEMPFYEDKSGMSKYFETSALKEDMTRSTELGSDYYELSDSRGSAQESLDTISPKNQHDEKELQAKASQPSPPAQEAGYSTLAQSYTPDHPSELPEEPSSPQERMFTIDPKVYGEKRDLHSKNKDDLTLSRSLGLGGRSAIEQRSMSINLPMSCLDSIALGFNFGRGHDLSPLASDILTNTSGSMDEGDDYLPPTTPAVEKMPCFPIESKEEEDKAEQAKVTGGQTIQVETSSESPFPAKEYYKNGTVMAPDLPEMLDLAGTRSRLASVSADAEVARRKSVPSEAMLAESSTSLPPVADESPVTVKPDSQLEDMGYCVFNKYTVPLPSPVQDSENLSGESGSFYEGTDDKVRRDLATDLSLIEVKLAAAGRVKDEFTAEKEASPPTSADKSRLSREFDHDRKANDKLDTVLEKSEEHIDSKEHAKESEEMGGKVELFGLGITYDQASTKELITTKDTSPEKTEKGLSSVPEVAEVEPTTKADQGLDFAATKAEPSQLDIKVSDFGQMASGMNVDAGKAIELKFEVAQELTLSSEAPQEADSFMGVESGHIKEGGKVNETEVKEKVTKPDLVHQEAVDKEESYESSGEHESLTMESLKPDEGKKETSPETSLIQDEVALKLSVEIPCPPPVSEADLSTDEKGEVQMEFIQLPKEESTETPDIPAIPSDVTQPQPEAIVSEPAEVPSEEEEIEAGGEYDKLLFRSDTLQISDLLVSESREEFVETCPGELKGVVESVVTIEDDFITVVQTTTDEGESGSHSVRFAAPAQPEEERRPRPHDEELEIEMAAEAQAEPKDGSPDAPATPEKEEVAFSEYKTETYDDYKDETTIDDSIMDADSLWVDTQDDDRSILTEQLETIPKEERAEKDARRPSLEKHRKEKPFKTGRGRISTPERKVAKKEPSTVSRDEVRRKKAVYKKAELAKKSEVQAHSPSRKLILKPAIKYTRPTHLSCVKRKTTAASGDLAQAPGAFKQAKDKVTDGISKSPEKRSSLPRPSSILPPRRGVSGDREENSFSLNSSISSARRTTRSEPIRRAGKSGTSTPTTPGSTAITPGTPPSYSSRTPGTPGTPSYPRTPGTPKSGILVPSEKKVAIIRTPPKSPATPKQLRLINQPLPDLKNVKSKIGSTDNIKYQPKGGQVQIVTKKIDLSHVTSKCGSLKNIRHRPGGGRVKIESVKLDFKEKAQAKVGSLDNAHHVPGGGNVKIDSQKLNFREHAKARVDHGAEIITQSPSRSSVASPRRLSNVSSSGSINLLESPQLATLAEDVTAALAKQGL
# UniProt P16627: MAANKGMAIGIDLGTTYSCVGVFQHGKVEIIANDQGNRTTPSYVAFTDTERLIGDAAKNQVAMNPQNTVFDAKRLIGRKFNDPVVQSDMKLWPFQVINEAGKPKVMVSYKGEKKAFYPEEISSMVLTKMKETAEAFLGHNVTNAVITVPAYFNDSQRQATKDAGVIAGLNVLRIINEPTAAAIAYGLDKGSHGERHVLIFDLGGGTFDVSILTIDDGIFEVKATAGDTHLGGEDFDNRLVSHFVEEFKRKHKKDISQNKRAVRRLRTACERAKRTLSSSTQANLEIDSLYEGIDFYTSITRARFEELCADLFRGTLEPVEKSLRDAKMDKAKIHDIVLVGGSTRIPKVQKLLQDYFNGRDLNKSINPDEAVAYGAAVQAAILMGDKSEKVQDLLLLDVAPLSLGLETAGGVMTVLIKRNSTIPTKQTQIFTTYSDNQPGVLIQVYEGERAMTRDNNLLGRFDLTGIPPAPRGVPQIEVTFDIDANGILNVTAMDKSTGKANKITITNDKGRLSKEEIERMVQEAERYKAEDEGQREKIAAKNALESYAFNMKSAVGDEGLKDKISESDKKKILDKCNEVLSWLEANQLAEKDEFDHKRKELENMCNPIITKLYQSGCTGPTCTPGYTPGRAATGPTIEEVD
# UniProt P04370: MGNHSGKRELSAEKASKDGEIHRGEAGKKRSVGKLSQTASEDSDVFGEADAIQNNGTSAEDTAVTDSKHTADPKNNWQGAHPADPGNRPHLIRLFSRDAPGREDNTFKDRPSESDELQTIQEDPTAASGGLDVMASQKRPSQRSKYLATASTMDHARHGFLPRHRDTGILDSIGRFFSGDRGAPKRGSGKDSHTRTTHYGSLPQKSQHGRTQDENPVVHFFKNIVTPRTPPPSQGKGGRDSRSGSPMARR
# No constants are given. Whether binding was seen depends on the method and setting. In cells and extracts the contact can be indirect. Here binding means that the protein was enriched with, or labelled near, the bait; the list need not be complete.
# How the values were obtained:
# [1] = target: SOD1^Leu126delTT with a FLAG sequence at C terminal (DF mutant SOD1) (human) (UniProt P00441); experiment: affinity purification with mass spectrometry; spinal cord of mice aged 145 days (DF symptomatic; WF); extract in 0.15 M NaCl, 10 mM Tris-HCl, 1% Triton X-100, pH 7.4; anti-FLAG M2 affinity gel, elution with 3xFLAG peptide, trypsin digest, LC-MS/MS
# [2] = target: SOD1^Leu126delTT with a FLAG sequence at C terminal (DF mutant SOD1) (human) (UniProt P00441); experiment: affinity purification with mass spectrometry; spinal cord of presymptomatic DF mice aged 35 days; same lysis buffer; anti-FLAG M2 affinity gel, elution with 3xFLAG peptide, LC-MS/MS
# [3] = target: SOD1^Leu126delTT with a FLAG sequence at C terminal (DF mutant SOD1) (human) (UniProt P00441); experiment: affinity purification with mass spectrometry; cerebellum of DF mice aged 145 days; same lysis buffer; anti-FLAG M2 affinity gel, elution with 3xFLAG peptide, LC-MS/MS
# [4] = target: wild-type human SOD1 with the FLAG sequence (WF SOD1) (human) (UniProt P00441); experiment: affinity purification with mass spectrometry; spinal cord of mice aged 145 days (DF symptomatic; WF); extract in 0.15 M NaCl, 10 mM Tris-HCl, 1% Triton X-100, pH 7.4; anti-FLAG M2 affinity gel, elution with 3xFLAG peptide, trypsin digest, LC-MS/MS
binding [1],binding [2],binding [3],binding [4],Substance
binds,–,–,–,ATP synthase β subunit (from UniProt P56480 47-529)
binds,–,–,–,ubiquitin carboxy-terminal hydrolase L1 (from UniProt Q9R0P9 1-223)
binds,–,–,–,heat shock protein 9A (from UniProt P38647 47-679)
binds,binds,binds,–,Na/K ATPase α 2 subunit (from UniProt Q6PIE5 1-1020)
–,binds,binds,–,eukaryotic translation initiation factor 4B (from UniProt Q8BGD9 1-611)
–,–,binds,–,adenylate cyclase-associated protein 2 (from UniProt Q9CYT6 1-476)
–,binds,binds,–,Na/K ATPase α 4 subunit (from UniProt Q9WV27 1-1032)
binds,binds,binds,binds,heat shock protein 70-2 (from UniProt P17156 1-633)
binds,–,–,–,microtubule-associated protein 2 (from UniProt P20357 1-1828)
binds,–,binds,–,heat shock 70 protein 1-like (from UniProt P16627 1-641)
binds,binds,–,–,myelin basic protein (from UniProt P04370 1-250)
